Results as given in article PMC11149415.
These are yes or no findings as the source states them, for the method shown. In cells and extracts the contact can be indirect. A result given as binding can be weak or reduced; the word gives no strength.

The chains behind the UniProt entries cited, without tags or fusion partners. Where a name states a change or a piece, a line headed by the entry shows the natural chain unless it says otherwise.
UniProt Q9NPH3: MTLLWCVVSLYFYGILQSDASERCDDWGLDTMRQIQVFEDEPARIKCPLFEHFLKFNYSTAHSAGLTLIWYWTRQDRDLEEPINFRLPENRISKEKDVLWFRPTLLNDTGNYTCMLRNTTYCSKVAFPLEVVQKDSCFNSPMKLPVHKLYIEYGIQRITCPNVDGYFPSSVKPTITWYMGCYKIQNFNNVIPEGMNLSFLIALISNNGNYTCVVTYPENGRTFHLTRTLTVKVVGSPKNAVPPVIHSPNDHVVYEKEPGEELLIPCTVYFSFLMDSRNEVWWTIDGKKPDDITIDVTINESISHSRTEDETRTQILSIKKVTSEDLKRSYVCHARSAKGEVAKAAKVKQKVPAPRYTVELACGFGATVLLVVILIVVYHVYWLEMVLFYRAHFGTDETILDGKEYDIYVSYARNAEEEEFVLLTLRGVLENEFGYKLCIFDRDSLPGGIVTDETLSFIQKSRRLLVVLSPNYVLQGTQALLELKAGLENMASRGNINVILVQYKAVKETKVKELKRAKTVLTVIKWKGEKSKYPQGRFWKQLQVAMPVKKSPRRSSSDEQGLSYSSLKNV
UniProt P14778: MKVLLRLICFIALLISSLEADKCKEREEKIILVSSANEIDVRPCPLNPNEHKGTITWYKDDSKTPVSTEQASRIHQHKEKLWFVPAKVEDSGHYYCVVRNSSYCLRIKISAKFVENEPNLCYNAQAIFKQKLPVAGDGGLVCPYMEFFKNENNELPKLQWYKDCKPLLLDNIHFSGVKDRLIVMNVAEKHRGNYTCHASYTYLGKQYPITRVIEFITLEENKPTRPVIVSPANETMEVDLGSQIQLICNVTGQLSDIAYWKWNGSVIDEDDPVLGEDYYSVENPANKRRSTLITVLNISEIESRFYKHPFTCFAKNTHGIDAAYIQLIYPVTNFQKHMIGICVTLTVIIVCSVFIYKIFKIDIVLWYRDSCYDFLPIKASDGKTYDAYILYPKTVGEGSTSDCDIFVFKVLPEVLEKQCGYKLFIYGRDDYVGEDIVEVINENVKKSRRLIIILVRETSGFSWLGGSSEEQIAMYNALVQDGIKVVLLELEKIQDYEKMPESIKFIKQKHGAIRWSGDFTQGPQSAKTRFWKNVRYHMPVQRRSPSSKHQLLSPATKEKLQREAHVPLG

Assays:
Assay in all cases: co-IP; HEK293T cells transfected with the indicated plasmids; NP40 lysis buffer (20 mM Tris–HCl pH 7.4, 150 mM NaCl, 1 mM EDTA, 1% NP40); indicated antibody and protein G magnetic beads, 4 °C, 4 h or overnight; washed with lysis buffer with 500 mM NaCl; western blotting; in some panels with or without overexpressed ANGPTL3
[1] = molecular target: IL1RAP N-terminal region (truncation mutant) (human) (UniProt Q9NPH3)
[2] = molecular target: IL1RAP C-terminal region (truncation mutant) (human) (UniProt Q9NPH3)
[3] = molecular target: IL1R1 C-terminal region (truncation mutant) (human) (UniProt P14778)

Measured: binding

B1: Angiopoietin like 3 (ANGPTL3), full-length, overexpressed (protein, UniProt Q9Y5C1 17-460)
chain: SRIDQDNSSFDSLSPEPKSRFAMLDDVKILANGLLQLGHGLKDFVHKTKGQINDIFQKLNIFDQSFYDLSLQTSEIKEEEKELRRTTYKLQVKNEEVKNMSLELNSKLESLLEEKILLQQKVKYLEEQLTNLIQNQPETPEHPEVTSLKTFVEKQDNSIKDLLQTVEDQYKQLNQQHSQIKEIENQLRRTSIQEPTEISLSSKPRAPRTTPFLQLNEIRNVKHDGIPAECTTIYNRGEHTSGMYAIRPSNSQVFHVYCDVISGSPWTLIQHRIDGSQNFNETWENYKYGFGRLDGEFWLGLEKIYSIVKQSNYVLRIELEDWKDNKHYIEYSFYLGNHETNYTLHLVAITGNVPNAIPENKDLVFSTWDHKAKGHFNCPEGYSGGWWWHDECGENNLNGKYNKPRAKSKPERRRGLSWKSQNGRLYSIKSTKMLIHPTDSESFE
binds: all assays above
